# Experimental data reported in PubChem BioAssay AID720551 (National Center for Advancing Translational Sciences (NCATS), 2013).
# The chains behind the UniProt entries cited, without tags or fusion partners.
# UniProt Q12809, whole entry: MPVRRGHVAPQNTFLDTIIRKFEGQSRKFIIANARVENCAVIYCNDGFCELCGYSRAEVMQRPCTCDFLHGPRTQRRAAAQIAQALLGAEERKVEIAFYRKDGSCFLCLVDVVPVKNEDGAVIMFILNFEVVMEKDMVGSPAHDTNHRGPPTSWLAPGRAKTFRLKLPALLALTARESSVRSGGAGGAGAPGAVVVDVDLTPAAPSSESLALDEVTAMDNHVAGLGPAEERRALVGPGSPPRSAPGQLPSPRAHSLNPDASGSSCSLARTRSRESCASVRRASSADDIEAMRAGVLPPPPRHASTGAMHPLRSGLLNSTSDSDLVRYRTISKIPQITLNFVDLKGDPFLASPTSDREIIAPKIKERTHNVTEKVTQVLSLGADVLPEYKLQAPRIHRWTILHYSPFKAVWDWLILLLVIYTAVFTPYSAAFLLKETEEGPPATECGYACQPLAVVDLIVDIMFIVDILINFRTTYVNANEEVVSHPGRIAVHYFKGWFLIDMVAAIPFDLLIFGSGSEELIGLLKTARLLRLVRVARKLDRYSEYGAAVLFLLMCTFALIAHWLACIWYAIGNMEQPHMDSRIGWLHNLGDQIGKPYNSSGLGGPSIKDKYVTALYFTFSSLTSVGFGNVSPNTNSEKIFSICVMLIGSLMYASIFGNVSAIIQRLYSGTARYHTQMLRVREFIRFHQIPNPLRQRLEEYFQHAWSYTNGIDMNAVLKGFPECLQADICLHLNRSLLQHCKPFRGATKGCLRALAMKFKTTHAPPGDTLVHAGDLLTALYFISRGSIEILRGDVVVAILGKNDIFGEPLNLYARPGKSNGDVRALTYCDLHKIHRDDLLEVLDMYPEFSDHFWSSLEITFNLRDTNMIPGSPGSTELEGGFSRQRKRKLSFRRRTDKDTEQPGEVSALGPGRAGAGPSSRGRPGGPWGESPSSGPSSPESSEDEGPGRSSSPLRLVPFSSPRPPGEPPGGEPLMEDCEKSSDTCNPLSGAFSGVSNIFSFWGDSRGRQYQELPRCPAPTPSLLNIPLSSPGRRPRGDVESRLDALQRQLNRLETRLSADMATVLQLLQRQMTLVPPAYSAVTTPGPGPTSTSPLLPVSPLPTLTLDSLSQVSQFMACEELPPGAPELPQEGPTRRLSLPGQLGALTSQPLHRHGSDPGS
# The whole screen tested about 340,000 compounds, of which about 1,300 (0.38%) were called active. These results got no clear call from the source, so the numbers are uncertain.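 The calls were made as follows: active = maximum activity change below -70%; inconclusive = maximum activity change between -70% and -50%; inactive = maximum activity change above -50%.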
# Target: Voltage-gated inwardly rectifying potassium channel KCNH2 (Homo sapiens) (UniProt Q12809)
# Test: qHTS for Inhibitors of KCHN2 3.1: Wildtype qHTS
# Details: U2OS, BacMam KCNH2, thallium flux FluxOr
# From the text: Many antipsychotic drugs that inhibit the neurotransmitter dopamine also bind to hERG1 channel which might help explain their antipsychotic activity but also produces cardiac side effects. The discovery of the novel KCNH2 3.1 isoform offers a potential new target for the development of antipsychotic drugs without cardiac side effects. This proposal will use a high throughput thallium flux assay developed for KCNH2 to screen compounds that modulate the activity of KCNH2 3.1. The wild type KCNH2 channel will also be screened in parallel to help define the selective modulators of this KCNH2 3.1 potassium channel. The resulting compounds will be validated in electrophysiology experiments. The availability of animal models will allow future testing in vivo for effects on memory and other aspects of animal physiology linked with psychosis. NIH Chemical Genomics Center [NCGC] NIH Molecular Libraries Probe Centers Network [MLPCN] MLPCN Grant: MH096539 Assay Submitter (PI): James Barrow, Johns Hopkins University, Lieber Institute for Brain Development
# U2OS cells were resuspended in cell media containing 10% fetal calf serum (FCS) at a concentration of 2 million cells / mL. […] A stimulation buffer was added to the plate and the second kinetic read (2 min) was obtained. The rate constant was calculated from the kinetic reads and normalized to the positive and negative DMSO controls.
row,Structure (SMILES),outcome
1,CCC(=O)N(c1ccccc1)C1(COC)CCN(CCc2cccs2)CC1,inconclusive
